Consider two molecules from paper PMC9633835.

The chains behind the UniProt entries cited, without tags or fusion partners. Where a name states a change or a piece, a line headed by the entry shows the natural chain unless it says otherwise.
UniProt P23771: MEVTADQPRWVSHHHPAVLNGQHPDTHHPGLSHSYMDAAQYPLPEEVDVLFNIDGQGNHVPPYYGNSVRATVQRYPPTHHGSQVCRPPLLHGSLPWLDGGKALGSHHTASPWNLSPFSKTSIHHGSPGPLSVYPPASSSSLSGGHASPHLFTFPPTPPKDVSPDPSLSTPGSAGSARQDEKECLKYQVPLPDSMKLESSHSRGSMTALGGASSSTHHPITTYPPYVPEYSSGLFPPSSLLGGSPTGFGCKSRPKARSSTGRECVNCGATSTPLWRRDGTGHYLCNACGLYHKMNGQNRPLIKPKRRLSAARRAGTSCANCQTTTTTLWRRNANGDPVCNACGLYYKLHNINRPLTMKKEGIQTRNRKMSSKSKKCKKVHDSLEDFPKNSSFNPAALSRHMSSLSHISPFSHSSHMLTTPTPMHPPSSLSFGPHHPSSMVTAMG
UniProt Q09472: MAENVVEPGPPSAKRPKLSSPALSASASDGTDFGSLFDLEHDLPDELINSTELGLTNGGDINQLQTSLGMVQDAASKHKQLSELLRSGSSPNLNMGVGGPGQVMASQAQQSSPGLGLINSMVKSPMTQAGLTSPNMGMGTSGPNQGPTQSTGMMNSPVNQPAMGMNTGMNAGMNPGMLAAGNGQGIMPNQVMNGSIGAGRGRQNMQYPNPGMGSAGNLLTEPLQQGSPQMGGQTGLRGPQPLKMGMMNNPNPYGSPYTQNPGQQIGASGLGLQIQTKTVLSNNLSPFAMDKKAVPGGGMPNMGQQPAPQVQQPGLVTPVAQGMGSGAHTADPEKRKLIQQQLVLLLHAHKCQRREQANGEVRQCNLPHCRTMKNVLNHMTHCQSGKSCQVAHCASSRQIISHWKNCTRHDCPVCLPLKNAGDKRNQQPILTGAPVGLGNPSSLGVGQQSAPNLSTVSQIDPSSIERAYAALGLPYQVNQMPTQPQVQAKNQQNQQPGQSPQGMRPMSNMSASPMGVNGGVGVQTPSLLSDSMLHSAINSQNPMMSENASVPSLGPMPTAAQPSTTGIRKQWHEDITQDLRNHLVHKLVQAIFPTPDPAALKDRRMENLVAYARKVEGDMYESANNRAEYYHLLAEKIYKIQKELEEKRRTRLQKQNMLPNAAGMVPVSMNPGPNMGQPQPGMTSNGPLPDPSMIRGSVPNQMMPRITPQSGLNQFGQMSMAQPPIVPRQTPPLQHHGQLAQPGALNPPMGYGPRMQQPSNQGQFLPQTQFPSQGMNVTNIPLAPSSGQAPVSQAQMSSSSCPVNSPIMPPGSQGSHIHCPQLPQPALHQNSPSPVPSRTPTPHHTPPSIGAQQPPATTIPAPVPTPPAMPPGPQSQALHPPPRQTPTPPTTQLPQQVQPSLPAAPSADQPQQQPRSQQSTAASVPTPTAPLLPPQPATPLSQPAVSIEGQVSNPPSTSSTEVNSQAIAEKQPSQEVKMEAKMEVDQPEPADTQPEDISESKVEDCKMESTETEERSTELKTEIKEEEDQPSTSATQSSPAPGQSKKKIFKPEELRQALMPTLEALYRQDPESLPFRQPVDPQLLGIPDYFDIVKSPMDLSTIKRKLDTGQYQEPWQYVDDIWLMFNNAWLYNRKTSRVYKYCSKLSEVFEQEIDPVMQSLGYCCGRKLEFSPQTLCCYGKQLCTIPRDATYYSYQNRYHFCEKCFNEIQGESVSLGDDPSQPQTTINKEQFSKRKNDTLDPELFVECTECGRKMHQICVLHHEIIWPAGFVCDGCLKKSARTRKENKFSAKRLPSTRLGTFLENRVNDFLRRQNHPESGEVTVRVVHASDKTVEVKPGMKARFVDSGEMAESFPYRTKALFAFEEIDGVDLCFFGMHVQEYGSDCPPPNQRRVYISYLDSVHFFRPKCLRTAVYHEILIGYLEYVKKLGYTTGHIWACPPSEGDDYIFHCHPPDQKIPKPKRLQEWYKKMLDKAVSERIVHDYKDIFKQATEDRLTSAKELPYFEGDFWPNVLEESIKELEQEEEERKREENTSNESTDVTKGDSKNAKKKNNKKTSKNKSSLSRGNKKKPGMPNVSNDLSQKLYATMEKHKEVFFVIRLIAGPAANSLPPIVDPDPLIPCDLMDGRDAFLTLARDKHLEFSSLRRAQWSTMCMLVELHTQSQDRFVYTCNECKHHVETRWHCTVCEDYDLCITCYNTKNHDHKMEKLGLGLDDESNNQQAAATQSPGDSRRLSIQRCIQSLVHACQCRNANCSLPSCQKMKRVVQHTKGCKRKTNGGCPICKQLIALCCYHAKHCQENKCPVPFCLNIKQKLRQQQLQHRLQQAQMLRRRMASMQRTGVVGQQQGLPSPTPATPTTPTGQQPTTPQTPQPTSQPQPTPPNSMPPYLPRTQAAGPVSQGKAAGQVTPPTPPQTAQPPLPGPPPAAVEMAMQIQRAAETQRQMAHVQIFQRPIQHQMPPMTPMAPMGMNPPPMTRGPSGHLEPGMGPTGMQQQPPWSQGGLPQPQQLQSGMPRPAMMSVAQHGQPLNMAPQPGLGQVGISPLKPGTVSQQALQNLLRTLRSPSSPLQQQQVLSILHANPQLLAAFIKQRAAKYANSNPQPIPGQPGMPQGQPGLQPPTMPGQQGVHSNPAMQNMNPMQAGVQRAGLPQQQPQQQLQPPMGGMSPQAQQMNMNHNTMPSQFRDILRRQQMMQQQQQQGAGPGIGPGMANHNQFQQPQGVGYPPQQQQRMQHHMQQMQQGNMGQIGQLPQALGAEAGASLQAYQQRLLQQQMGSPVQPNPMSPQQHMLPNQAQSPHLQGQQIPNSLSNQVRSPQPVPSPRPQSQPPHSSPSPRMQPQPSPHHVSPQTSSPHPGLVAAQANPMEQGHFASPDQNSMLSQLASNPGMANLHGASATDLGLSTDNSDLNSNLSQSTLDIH

The assay concerns the target GATA-3 fused with the mutated E. coli biotin ligase BirA (R118G) (UniProt P23771). The experiment in a line: proximity labelling; BioID: BirA (R118G) fused with GATA-3 expressed from a doxycycline-inducible vector in Jurkat cells; biotinylated proteins enriched by affinity capture and identified by mass spectrometry; BirA-NLS cells as negative control.

Results are given in words; binding and its absence hold for the method and conditions named. In cells and extracts the contact can be indirect. These calls come from enrichment with a bait or labelling near it, and not all partners need be listed.

Turning to “histone acetyltransferase p300 (from UniProt Q09472 1-2414)”, the binding entry is reported as “binds”.

B1: ZFPM1 (protein, UniProt Q8IX07 1-1006)
chain: MSRRKQSNPRQIKRSLGDMEAREEVQLVGASHMEQKATAPEAPSPPSADVNSPPPLPPPTSPGGPKELEGQEPEPRPTEEEPGSPWSGPDELEPVVQDGQRRIRARLSLATGLSWGPFHGSVQTRASSPRQAEPSPALTLLLVDEACWLRTLPQALTEAEANTEIHRKDDALWCRVTKPVPAGGLLSVLLTAEPHSTPGHPVKKEPAEPTCPAPAHDLQLLPQQAGMASILATAVINKDVFPCKDCGIWYRSERNLQAHLLYYCASRQGTGSPAAAATDEKPKETYPNERVCPFPQCRKSCPSASSLEIHMRSHSGERPFVCLICLSAFTTKANCERHLKVHTDTLSGVCHSCGFISTTRDILYSHLVTNHMVCQPGSKGEIYSPGAGHPATKLPPDSLGSFQQQHTALQGPLASADLGLAPTPSPGLDRKALAEATNGEARAEPLAQNGGSSEPPAAPRSIKVEAVEEPEAAPILGPGEPGPQAPSRTPSPRSPAPARVKAELSSPTPGSSPVPGELGLAGALFLPQYVFGPDAAPPASEILAKMSELVHSRLQQGAGAGAGGAQTGLFPGAPKGATCFECEITFSNVNNYYVHKRLYCSGRRAPEDAPAARRPKAPPGPARAPPGQPAEPDAPRSSPGPGAREEGAGGAATPEDGAGGRGSEGSQSPGSSVDDAEDDPSRTLCEACNIRFSRHETYTVHKRYYCASRHDPPPRRPAAPPGPPGPAAPPAPSPAAPVRTRRRRKLYELHAAGAPPPPPPGHAPAPESPRPGSGSGSGPGLAPARSPGPAADGPIDLSKKPRRPLPGAPAPALADYHECTACRVSFHSLEAYLAHKKYSCPAAPPPGALGLPAAACPYCPPNGPVRGDLLEHFRLAHGLLLGAPLAGPGVEARTPADRGPSPAPAPAASPQPGSRGPRDGLGPEPQEPPPGPPPSPAAAPEAVPPPPAPPSYSDKGVQTPSKGTPAPLPNGNHRYCRLCNIKFSSLSTFIAHKKYYCSSHAAEHVK
On to B1, for which the binding entry is recorded as “binds”.
